These are yes or no findings as the source states them, for the method shown. Binding seen in cells or lysates may run through a third protein. For part of these data: A result given as binding can be weak or reduced; the word gives no strength.
Experiments:
[1] = target: T1, DHX36 (human (endogenous in U87 and U251)) (UniProt Q9H2U1); assay: co-IP; total extracts (TE) of U87 or U251 cells, endogenous proteins, in the presence of RNase and DNase; immunoprecipitation with hnRNP H/F or DHX36 antibody, western blot
T1 sequence: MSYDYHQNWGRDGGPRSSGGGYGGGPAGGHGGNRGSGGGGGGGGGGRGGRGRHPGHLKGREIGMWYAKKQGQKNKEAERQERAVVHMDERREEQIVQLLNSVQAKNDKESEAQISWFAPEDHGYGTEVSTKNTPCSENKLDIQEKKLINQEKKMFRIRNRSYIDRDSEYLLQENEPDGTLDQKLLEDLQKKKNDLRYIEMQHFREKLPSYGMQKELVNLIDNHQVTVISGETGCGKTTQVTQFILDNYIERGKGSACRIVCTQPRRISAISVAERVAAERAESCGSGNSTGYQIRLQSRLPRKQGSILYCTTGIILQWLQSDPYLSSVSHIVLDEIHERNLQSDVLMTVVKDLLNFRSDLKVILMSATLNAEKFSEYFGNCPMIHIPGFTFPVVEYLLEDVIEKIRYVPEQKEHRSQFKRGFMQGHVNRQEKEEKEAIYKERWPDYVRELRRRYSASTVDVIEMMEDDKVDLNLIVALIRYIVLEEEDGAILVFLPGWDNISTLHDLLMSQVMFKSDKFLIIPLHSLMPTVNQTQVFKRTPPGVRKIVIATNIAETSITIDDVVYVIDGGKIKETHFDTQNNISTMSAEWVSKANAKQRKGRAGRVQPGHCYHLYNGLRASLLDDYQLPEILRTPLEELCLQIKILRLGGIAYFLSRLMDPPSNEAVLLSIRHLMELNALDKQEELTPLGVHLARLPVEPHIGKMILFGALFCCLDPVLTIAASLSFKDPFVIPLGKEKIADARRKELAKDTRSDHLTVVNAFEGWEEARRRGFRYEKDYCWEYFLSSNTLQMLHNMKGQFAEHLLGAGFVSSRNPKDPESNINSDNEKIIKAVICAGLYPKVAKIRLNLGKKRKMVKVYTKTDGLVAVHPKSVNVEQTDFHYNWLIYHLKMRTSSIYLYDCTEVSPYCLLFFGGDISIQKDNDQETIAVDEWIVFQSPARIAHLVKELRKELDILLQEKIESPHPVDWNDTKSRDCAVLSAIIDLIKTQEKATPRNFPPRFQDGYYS

[2] = target: T1, DHX36 (human (endogenous in U87 and U251)); assay: co-IP; cytoplasmic extracts (CE; cytosolic + microsomal fractions) of U87 or U251 cells, endogenous proteins, digested with Benzonase and DNase I; hnRNP H/F or DHX36 antibody on beads, 1 mg extract overnight at 4 °C, western blot
[3] = target: T2, hnRNP F (human (endogenous in U87 and U251)) (UniProt P52597); assay: co-IP; total extracts (TE) of U87 or U251 cells, endogenous proteins, in the presence of RNase and DNase; immunoprecipitation with hnRNP H/F or DHX36 antibody, western blot
T2 sequence: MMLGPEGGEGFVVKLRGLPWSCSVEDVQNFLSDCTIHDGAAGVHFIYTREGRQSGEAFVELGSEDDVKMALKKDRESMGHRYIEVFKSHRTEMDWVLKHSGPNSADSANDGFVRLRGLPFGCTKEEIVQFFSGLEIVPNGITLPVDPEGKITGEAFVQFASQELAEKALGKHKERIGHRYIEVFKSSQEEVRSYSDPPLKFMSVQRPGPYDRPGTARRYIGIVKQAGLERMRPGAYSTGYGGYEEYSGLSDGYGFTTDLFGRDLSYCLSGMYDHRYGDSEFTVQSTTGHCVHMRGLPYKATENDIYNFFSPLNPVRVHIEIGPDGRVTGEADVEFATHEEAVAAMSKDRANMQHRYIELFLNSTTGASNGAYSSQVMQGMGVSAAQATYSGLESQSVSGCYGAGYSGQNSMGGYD

[4] = target: T2, hnRNP F (human (endogenous in U87 and U251)); assay: co-IP; cytoplasmic extracts (CE; cytosolic + microsomal fractions) of U87 or U251 cells, endogenous proteins, digested with Benzonase and DNase I; hnRNP H/F or DHX36 antibody on beads, 1 mg extract overnight at 4 °C, western blot

Substance	binding [1]	binding [2]	binding [3]	binding [4]
hnRNP H (human (endogenous in U87 and U251))	binds	binds	–	–
translation initiation factor eIF4A (human (endogenous in U87 and U251)) (enzyme)	no binding	no binding	no binding	no binding

— publication PMC7253433
